Values from PubChem BioAssay AID1053208 (Peter MacCallum Cancer Centre, 2014).

- Screen: 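Genes whose silencing cuts survival of bone tumour cells only with doxorubicin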 (primary screen)
- System: mouse osteosarcoma cells, early-passage culture from an engineered mouse model of fibroblastic bone tumour
- Reagent: siRNA pool against mouse genes, 40 nM
- Duration: about 120 h (48 h before drug, then 72 h with drug)
- Challenge: doxorubicin 100 nM for 72 h, roughly 30-40% inhibitory dose
- Detection: 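Luminescent ATP signal taken as viability with or without 100 nM doxorubicin for 72 h; mean of two wells set against non-targeting siRNA and turned into robust z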
- Scale: viability z-score with doxorubicin: higher = more viable cells under doxorubicin; viability z-score without drug: higher = more viable cells with knock-down alone; z-score of drug to no-drug ratio: higher = less drug sensitisation by knock-down
- Call rule: 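a pool counts as active when its viability z-score with doxorubicin is -2 or below and its z-score without drug lies between -2 and 2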
Here is one part, drawn at random, of about 17,000 reagents tested. 788 of all reagents (4.7%) count as active. 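Calls rest on z-score classes alone; an extra cut-off of viability at most 70% of control was not applied to them.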 The numbers tell different reagents against one gene apart. Some reagents were tested in more than one well and are listed for each. Further read-outs or replicates are left out here.

no.	target	reagent	combined z-score class	viability z-score with doxorubicin	viability z-score without drug	z-score of drug to no-drug ratio	Outcome
1	Rpl35	1	low cell count with and without drug	-5.85	-6.24	-2.92	inactive
2	Sdk2	1	no change with or without drug	1.24	0.84	0.79	inactive
3	9430097D07Rik	1	no change with or without drug	0.9	0.51	0.67	inactive
4	Pon2	1	no change with or without drug	0.79	0.51	0.56	inactive
5	Iffo1	1	no change with or without drug	-0.67	-0.51	-0.22	inactive
6	Mettl27	1	no change with or without drug	-0.22	0.51	-0.45	inactive
7	Maob	1	no change with or without drug	0.9	-1.52	2.36	inactive
8	Nfat5	1	no change with or without drug	1.12	1.18	0.45	inactive
9	Snx19	1	no change with or without drug	0.22	-0.51	0.67	inactive
10	A930017M01Rik	1	no change with or without drug	-0.67	-0.51	-0.22	inactive
11	Pole4	1	no change with or without drug	1.12	-0.17	1.46	inactive
12	Samm50	1	no change with or without drug	-1.24	0.51	-1.46	inactive
13	Raly	1	no change with or without drug	-0.22	1.01	-0.79	inactive
14	Akr1c18	1	no change with or without drug	0.67	0.17	0.67	inactive
15	Gpr155	1	no change with or without drug	0.22	-0.84	1.01	inactive
16	Stk26	1	no change with or without drug	0	-1.18	1.01	inactive
17	Stk26	1	no change with or without drug	-0.67	1.18	-1.35	inactive
18	Gpr160	1	no change with or without drug	-0.79	-0.67	-0.22	inactive
19	Rbpms2	1	no change with or without drug	-1.35	0.17	-1.46	inactive
20	Prss46	1	no change with or without drug	0.34	0.84	-0.11	inactive
21	Sp5	1	no change with or without drug	0.22	-0.17	0.45	inactive
22	Coa3	1	no change with or without drug	-0.67	-1.18	0.22	inactive
23	Gadd45b	1	no change with or without drug	1.12	-0.17	1.46	inactive
24	Hnf1b	1	no change with or without drug	-0.22	1.18	-0.9	inactive
25	Gosr2	1	no change with or without drug	0.79	0.34	0.67	inactive
26	Gfral	1	no change with or without drug	1.35	0.34	1.24	inactive
27	Creb1	1	no change with or without drug	-0.9	-0.17	-0.79	inactive
28	Creb1	2	no change with or without drug	1.57	0.84	1.12	inactive
29	Epha7	1	no change with or without drug	0.34	0.17	0.34	inactive
30	Kng1	1	no change with or without drug	-0.67	-1.18	0.22	inactive
31	Card19	1	no change with or without drug	-1.12	1.69	-2.02	inactive
32	Mpped1	1	no change with or without drug	0.9	-1.35	2.14	inactive
33	Pip4k2c	1	no change with or without drug	0	0.84	-0.45	inactive
34	Sh3rf3	1	no change with or without drug	-0.22	0.51	-0.45	inactive
35	Havcr2	1	no change with or without drug	0.45	0.84	0	inactive
36	Cd93	1	no change with or without drug	0	-0.51	0.45	inactive
37	Adam32	1	high cell count with doxorubicin only	2.25	-0.17	2.59	inactive
38	Dnajc5	1	no change with or without drug	-1.35	1.52	-2.14	inactive
39	Or9s18	1	no change with or without drug	-1.24	-1.85	0.11	inactive
40	Epha1	1	no change with or without drug	0	-0.84	0.67	inactive
41	Tomm7	1	no change with or without drug	-0.56	-1.18	0.34	inactive
42	Mcm7	1	low cell count without drug only	-1.8	-2.87	0.22	inactive
43	Zmynd19	1	no change with or without drug	-0.22	0.84	-0.67	inactive
44	Rab11b	1	no change with or without drug	-0.22	-0.51	0.22	inactive
45	Rab11b	2	no change with or without drug	-1.35	-0.17	-1.24	inactive
46	Sgk2	1	no change with or without drug	-1.57	-0.51	-1.24	inactive
47	Or8b12i	1	low cell count with doxorubicin only	-2.02	-1.01	-1.46	active
48	H2bc27	1	no change with or without drug	0.45	-0.51	1.01	inactive
49	Atpsckmt	1	no change with or without drug	0	0.84	-0.45	inactive
50	Ocln	1	no change with or without drug	0.67	-0.17	0.9	inactive
51	Aanat	1	no change with or without drug	0.45	0.84	0	inactive
52	Myo5a	1	no change with or without drug	0.67	-0.17	0.9	inactive
53	Sap130	1	no change with or without drug	-0.22	-0.84	0.45	inactive
54	Efcab5	1	no change with or without drug	-1.57	-0.17	-1.46	inactive
55	Uba5	1	no change with or without drug	1.12	0.84	0.67	inactive
56	Ints5	1	no change with or without drug	-1.57	-1.85	-0.34	inactive
57	Lamc1	1	no change with or without drug	0.56	1.18	-0.11	inactive
58	Apc	1	no change with or without drug	0.45	-0.84	1.24	inactive
59	Tbc1d9	1	no change with or without drug	0.45	0.34	0.34	inactive
60	Dmrt1	1	no change with or without drug	0.79	-0.51	1.35	inactive
61	Selenow	1	no change with or without drug	0.67	0.34	0.56	inactive
62	Mapk8ip3	1	high cell count without drug only	1.12	3.2	-0.79	inactive
63	Zfp788	1	no change with or without drug	0.67	1.52	-0.22	inactive

Copied from the list.
For “z-score of drug to no-drug ratio”, Adam32 has 2.59
Card19, Outcome → inactive
Entry of Efcab5 in “viability z-score with doxorubicin”: -1.57
Value of Zmynd19 under “z-score of drug to no-drug ratio”: -0.67
Gpr160, z-score of drug to no-drug ratio: -0.22
Entry of Rab11b #1 in “Outcome”: inactive
